Data taken from paper PMC10353189, “Hybridization of the effective pharmacophores for treatment of epilepsy: design, synthesis, in vivo anticonvulsant activity, and in silico studies of phenoxyphenyl-1,3,4-oxadiazole-thio-N-phenylacetamid hybrids” (BMC Chemistry, 2023).

What was measured:
[1] = system: PTZ-induced lethal convulsion in mice; test: Pentylenetetrazole (PTZ) induced seizure test; format: in vivo, Male NMRI mice; conditions: dose 2 mg/kg ip, with flumazenil 1 mg/kg ip 15 min before seizure induction
[2] = system: mice on rotating rod; test: Rotarod test (acute neurotoxicity, muscle relaxant activity); format: in vivo; conditions: dose 2 mg/kg ip, 30 min after injection, 5 rpm, Mean ± SEM, n = 4–6
From the text: The last in vivo assay was the determination of neurotoxic potential (muscle relaxant activity) of the potent anticonvulsant compounds 8k and 8L by rotarod method. […] […].

CN1C(=O)CN=C(c2ccccc2)c2cc(Cl)ccc21 [Diazepam, reference compound]
PTZ Number of animals protected / Number of tested animals [1]: 0/6 | Time as seconds to stay on rotating bar [2]: 3.80 ± 0.40 s
